Measurements reported in PubChem BioAssay AID1259327 (Drosophila RNAi Screening Center, 2017).

Assay: 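Baseline ATP after transmembrane-protein gene knock-down with water vehicle only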
Cell system: Drosophila S2R+ cells
Reagent: long dsRNA against Drosophila genes
Time to read-out: 5 days (water added on day 4, read one day later)
Challenge: water added as vehicle, no metal, one day before read-out
Detection: 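Total ATP measured by luciferase light, scaled to plate mean, duplicates averaged, then z-scored across plates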
Direction: ATP z-score: higher = more total ATP than typical wells; ATP luminescence: higher = more total ATP
Active means: 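Called active when the ATP z-score exceeds 1.5 or falls below -1.5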
Calls: active = hit: ATP up or down; inactive = no clear ATP change
Shown is a random part of about 3,100 reagents tested. 378 of them (12%) count as active. 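Hits include both directions; z-score sign shows ATP rise or fall; raw luminescence values are not plate-normalised.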 Unmarked entries are inactive. The record does not give: the amount of reagent.

How did the screen score Cngl (GeneID 32468) [DRSC20318]?
ATP z-score, duplicate mean: 1.16; ATP luminescence, replicate 1 (RLU): 5.06e5; ATP luminescence, replicate 2 (RLU): 7.73e5

For Cngl (GeneID 32468) [DRSC23577], what was measured?
ATP z-score, duplicate mean: -0.0575; ATP luminescence, replicate 1 (RLU): 8.21e5; ATP luminescence, replicate 2 (RLU): 8.66e5

How did the screen score Nup50 (GeneID 35784) [DRSC06827]?
ATP z-score, duplicate mean: -0.343; ATP luminescence, replicate 1 (RLU): 7.22e5; ATP luminescence, replicate 2 (RLU): 6.66e5

For Nup50 (GeneID 35784) [DRSC26470], how do the results read?
ATP z-score, duplicate mean: -0.699; ATP luminescence, replicate 1 (RLU): 9.46e5; ATP luminescence, replicate 2 (RLU): 1.11e6

For CG34030 (GeneID 3885636) [DRSC08866], what was measured?
ATP z-score, duplicate mean: -1.27; ATP luminescence, replicate 1 (RLU): 5.80e5; ATP luminescence, replicate 2 (RLU): 6.30e5

For Inx2 (GeneID 31646) [DRSC18783], what does the deposit list?
ATP z-score, duplicate mean: -0.051; ATP luminescence, replicate 1 (RLU): 7.03e5; ATP luminescence, replicate 2 (RLU): 6.97e5

With Inx2 (GeneID 31646) [DRSC24455], how do the results read?
ATP z-score, duplicate mean: -0.599; ATP luminescence, replicate 1 (RLU): 8.28e5; ATP luminescence, replicate 2 (RLU): 7.23e5

For Sarm (GeneID 38895) [DRSC08906], what does the deposit list?
ATP z-score, duplicate mean: -0.164; ATP luminescence, replicate 1 (RLU): 6.60e5; ATP luminescence, replicate 2 (RLU): 7.93e5

How did the screen score Sarm (GeneID 38895) [DRSC08907]?
ATP z-score, duplicate mean: 0.766; ATP luminescence, replicate 1 (RLU): 8.99e5; ATP luminescence, replicate 2 (RLU): 7.47e5

With Sarm (GeneID 38895) [DRSC10038], what does the deposit list?
ATP z-score, duplicate mean: -0.316; ATP luminescence, replicate 1 (RLU): 8.66e5; ATP luminescence, replicate 2 (RLU): 8.43e5

For Sarm (GeneID 38895) [DRSC10927], what was measured?
ATP z-score, duplicate mean: 0.363; ATP luminescence, replicate 1 (RLU): 9.86e5; ATP luminescence, replicate 2 (RLU): 9.03e5

For Sarm (GeneID 38895) [DRSC10929], how do the results read?
ATP z-score, duplicate mean: -0.258; ATP luminescence, replicate 1 (RLU): 6.99e5; ATP luminescence, replicate 2 (RLU): 7.08e5

What is on record for CG12376 (GeneID 35857) [DRSC29464]?
ATP z-score, duplicate mean: 0.374; ATP luminescence, replicate 1 (RLU): 9.45e5; ATP luminescence, replicate 2 (RLU): 7.97e5

How did the screen score CG12376 (GeneID 35857) [DRSC39520]?
ATP z-score, duplicate mean: -2.03 (active); ATP luminescence, replicate 1 (RLU): 3.02e5; ATP luminescence, replicate 2 (RLU): 3.34e5

With S2P (GeneID 36262) [DRSC07311], what does the deposit list?
ATP z-score, duplicate mean: -0.674; ATP luminescence, replicate 1 (RLU): 5.89e5; ATP luminescence, replicate 2 (RLU): 5.28e5

How did the screen score S2P (GeneID 36262) [DRSC27864]?
ATP z-score, duplicate mean: -0.626; ATP luminescence, replicate 1 (RLU): 1.07e6; ATP luminescence, replicate 2 (RLU): 8.89e5

With mthl2 (GeneID 38636) [DRSC10287], what was measured?
ATP z-score, duplicate mean: 0.803; ATP luminescence, replicate 1 (RLU): 1.10e6; ATP luminescence, replicate 2 (RLU): 9.02e5

For mthl2 (GeneID 38636) [DRSC27003], what does the deposit list?
ATP z-score, duplicate mean: -0.349; ATP luminescence, replicate 1 (RLU): 1.14e6; ATP luminescence, replicate 2 (RLU): 1.29e6

How did the screen score CG2003 (GeneID 43761) [DRSC15411]?
ATP z-score, duplicate mean: 0.893; ATP luminescence, replicate 1 (RLU): 6.11e5; ATP luminescence, replicate 2 (RLU): 6.64e5

What did the screen give for CG2003 (GeneID 43761) [DRSC39782]?
ATP z-score, duplicate mean: 0.651; ATP luminescence, replicate 1 (RLU): 4.27e5; ATP luminescence, replicate 2 (RLU): 6.29e5

With CG4459 (GeneID 42377) [DRSC15582], what was measured?
ATP z-score, duplicate mean: -0.302; ATP luminescence, replicate 1 (RLU): 2.92e5; ATP luminescence, replicate 2 (RLU): 7.14e5

With DAT (GeneID 36849) [DRSC07394], how do the results read?
ATP z-score, duplicate mean: 0.183; ATP luminescence, replicate 1 (RLU): 5.53e5; ATP luminescence, replicate 2 (RLU): 7.20e5

For CadN2 (GeneID 35071) [DRSC03062], how do the results read?
ATP z-score, duplicate mean: -0.873; ATP luminescence, replicate 1 (RLU): 6.43e5; ATP luminescence, replicate 2 (RLU): 6.24e5

How did the screen score CadN2 (GeneID 35071) [DRSC03063]?
ATP z-score, duplicate mean: -0.649; ATP luminescence, replicate 1 (RLU): 8.33e5; ATP luminescence, replicate 2 (RLU): 7.89e5

For CG4630 (GeneID 36458) [DRSC06874], what does the deposit list?
ATP z-score, duplicate mean: -0.57; ATP luminescence, replicate 1 (RLU): 6.77e5; ATP luminescence, replicate 2 (RLU): 6.63e5

What did the screen give for CG4630 (GeneID 36458) [DRSC26971]?
ATP z-score, duplicate mean: 0.37; ATP luminescence, replicate 1 (RLU): 8.10e5; ATP luminescence, replicate 2 (RLU): 9.25e5

What did the screen give for Ir52a (GeneID 36715) [DRSC06262]?
ATP z-score, duplicate mean: 1.11; ATP luminescence, replicate 1 (RLU): 7.18e5; ATP luminescence, replicate 2 (RLU): 7.22e5

What is on record for subdued (GeneID 42340) [DRSC15137]?
ATP z-score, duplicate mean: 0.0566; ATP luminescence, replicate 1 (RLU): 7.29e5; ATP luminescence, replicate 2 (RLU): 6.95e5

What did the screen give for subdued (GeneID 42340) [DRSC39505]?
ATP z-score, duplicate mean: 1.07; ATP luminescence, replicate 1 (RLU): 5.63e5; ATP luminescence, replicate 2 (RLU): 4.86e5

With Or22b (GeneID 33336) [DRSC00765], how do the results read?
ATP z-score, duplicate mean: -0.496; ATP luminescence, replicate 1 (RLU): 6.77e5; ATP luminescence, replicate 2 (RLU): 6.33e5

Which result is listed for Or22b (GeneID 33336) [DRSC39696]?
ATP z-score, duplicate mean: -0.325; ATP luminescence, replicate 1 (RLU): 4.44e5; ATP luminescence, replicate 2 (RLU): 4.42e5

In a second layout: entries from further up.
| Target gene | dsRNA | ATP z-score, duplicate mean | ATP luminescence, replicate 1 (RLU) | ATP luminescence, replicate 2 (RLU) |
| --- | --- | --- | --- | --- |
| Ir52a (GeneID 36715) | DRSC06262 | 1.11 | 7.18e5 | 7.22e5 |
| subdued (GeneID 42340) | DRSC15137 | 0.0566 | 7.29e5 | 6.95e5 |
| subdued (GeneID 42340) | DRSC39505 | 1.07 | 5.63e5 | 4.86e5 |
